According to PubChem BioAssay AID2417 (National Center for Advancing Translational Sciences (NCATS), 2010):
Screen size: about 140,000 compounds; about 4,300 (3.1%) were called active. The shares of active, inactive and inconclusive entries below differ from those in the screen.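 How the source made its calls: active means readout at or below -70, meaning at least 70% loss of cells showing the perinucleolar compartment, a nuclear body marking cancer cells; inconclusive means readout between -30 and a set limit; inactive means the rest.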

Experiment: High Content Assay for Compounds that inhibit the Assembly of the Perinucleolar Compartment;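 further: plate controls were DMSO wells for no effect and camptothecin positive control wells for full effect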
Conditions: PC3M PTB-GFP, PNC prevalence imaging, 16 h; at 10 µM; active compounds read low
How it was run: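 Compounds are pinned in duplicate onto adhered PC3M cells stably expressing GFP-tagged PTB and incubated 16 h at 37 C. Cells are then fixed, nuclei stained with Hoechst, and PNC-positive cells counted.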

Row | Compound | activity change (PNC), negative = inhibition
1 | Cc1ccc(Cn2cc(/C=N/Nc3ccc([N+](=O)[O-])cn3)c3ccccc32)cc1 | inconclusive: -34.6%
2 | COc1cccc(-c2nnn(CC(=O)O)n2)c1 | active: -91.3%
3 | CN1C(=O)N(C)C2CC1N(C)C(=O)N2C | inconclusive: -43.8%
4 | COc1ccc(C(c2sc3nc(C)nn3c2O)N2CC(C)OC(C)C2)cc1OC (stereo unspecified) | inconclusive: -56.5%
5 | CCC(=O)N1CCc2cc(Br)cc(S(=O)(=O)NCC3CCCO3)c21 (stereo unspecified) | inconclusive: -43%
6 | NC(=O)c1ccc(NC(=O)COC(=O)CC(NC(=O)c2ccccc2Cl)c2ccccc2)cc1 (stereo unspecified) | inconclusive: -39.1%
7 | O=C(Nc1ccc(Cl)cn1)c1ccc2ccccc2n1 | inconclusive: -73.3%
8 | CSCCNC(=O)c1ccc(C(C)(C)C)cc1 | inactive: -22.3%
9 | CCCOC(=O)CCCCC1SCC(NC(=O)OC)C1NC(=O)OC (stereo unspecified) | inconclusive: -33.7%
10 | CCOC(=O)C1=C(CSc2nc3c(cc2C#N)CCC3)OC(N)=C(C#N)C1c1ccccc1 (stereo unspecified) | inconclusive: -37.7%
11 | COc1ccccc1/C=N/NC(=O)c1csc(C)c1C | inconclusive: -51%
12 | Cc1ccc[n+](C(C)C(=O)Nc2ccc(C)c([N+](=O)[O-])c2)c1 (stereo unspecified) | inconclusive: -60.8%
13 | CCOC(=O)c1cc(-c2ccc3c(c2)OCO3)nc2onc(C)c12 | inconclusive: -33%
14 | CCc1nnc(NC(=O)[C@@H](NC(=O)c2cccc(S(=O)(=O)N(CC)CC)c2)C(C)C)s1 | inconclusive: -49.6%
15 | Cc1ccnc2nc(C(=O)OCC(=O)NCCc3ccc(Cl)cc3)nn12 | inconclusive: -50.9%
16 | COc1ccc(/C=N/NC(=O)c2nc(-c3ccccc3)n(-c3ccccc3)n2)cc1 | inconclusive: -66.6%
17 | CC(C)C(C(=O)Nc1ncn[nH]1)N1C(=O)c2ccccc2C1=O (stereo unspecified) | inconclusive: -76.8%
18 | COc1ccc(/C=C(/NC(=O)c2ccccc2)C(=O)N/N=C/c2ccc3c(c2)OCO3)cc1OC | inactive: 59.7%
19 | CSc1nc(Oc2ccc3ccccc3c2)c2ccccc2n1 | inconclusive: -41.9%
20 | CCOC(=O)c1nc(NCc2cccnc2)c2ccccc2n1 | inconclusive: -42.8%
21 | COCCCN(CCCN)Cc1ccco1 | inactive: -16.9%
22 | CCOC(=O)c1c(/N=C/C2C(=O)CCCC2=O)sc(C)c1C | inconclusive: -33%
23 | NS(=O)(=O)c1ccc(CCNC(=O)C2CCCCC2)cc1 | inconclusive: -32.1%

Filtered by structure: the compounds so far containing a nitro group on carbon
Row | Compound | activity change (PNC), negative = inhibition
1 | Cc1ccc(Cn2cc(/C=N/Nc3ccc([N+](=O)[O-])cn3)c3ccccc32)cc1 | inconclusive: -34.6%
12 | Cc1ccc[n+](C(C)C(=O)Nc2ccc(C)c([N+](=O)[O-])c2)c1 (stereo unspecified) | inconclusive: -60.8%

Following part

Row | Compound | activity change (PNC), negative = inhibition
24 | CCOC(=O)c1cnn(-c2ncnc3sc4c(c23)CCC4)c1N | inactive: -0.305%
25 | Cn1c(Sc2ccc(C(F)(F)F)cc2[N+](=O)[O-])nnc1-c1ccccc1 | inconclusive: -36.8%
26 | Cc1nnc2c(NC(C)C)nc3ccccc3n12 | inconclusive: -36.3%
27 | CCC1(CC)Cc2ccccc2-c2nc(NCCO)[nH]c(=O)c21 | active: -100%
28 | Cc1cccc(CC2SC(N3CCN(c4ccccc4)CC3)=NC2=O)c1 (stereo unspecified) | inconclusive: -60.9%
29 | O=C(CSc1ncnc2c1cnn2-c1ccccc1)Nc1ccccc1 | inconclusive: -52.9%
30 | Cn1c(Cl)cnc1C1CC(=O)c2cc(Cl)ccc2O1 (stereo unspecified) | active: -112%
31 | COc1cc(/C=N/NC(=O)c2ccc3ccccc3c2)ccc1Oc1ccc([N+](=O)[O-])cn1 | inactive: 27.4%
32 | CCCn1nnc(NC(=O)c2ccco2)n1 | inconclusive: -64.3%
33 | CNC(=O)/C(C#N)=C\c1ccc(CNS(=O)(=O)c2ccccc2)o1 | inconclusive: -45.2%
34 | Cc1occc1C(=O)NCCCCc1ccccc1 | inconclusive: -41.3%
35 | Cc1ccc(NC(=O)NCCCN2CCOCC2)cc1 | inconclusive: -53.3%
36 | O=S(=O)(c1ccc(-n2cnnn2)cc1)N(C1CCCCC1)C1CCCCC1 | inconclusive: -38%
37 | Nc1cc(-c2ccccc2)nn1Cc1ccc(Cl)cc1 | inconclusive: -40.8%
38 | Cc1noc(C)c1CSc1nnc(-c2ccncc2)n1-c1cccc(Cl)c1C | inactive: -6.34%
39 | COc1ccccc1-n1c(SCC(=O)Nc2ccc(F)cc2)nc2c(c1=O)SCC2 | inactive: 24.8%
40 | COc1ccc(C2CC(c3cccs3)=Nc3ccccc3S2)cc1 (stereo unspecified) | inconclusive: -75.6%
41 | COc1cccc(/C=N/n2cncn2)c1OCC#N | inconclusive: -44.9%
42 | Cn1nc([N+](=O)[O-])nc1Oc1ccc(C(C)(C)C)cc1 | inactive: -17.2%
43 | Oc1ccc(Nc2nc(-c3ccc4ccccc4c3)cs2)cc1 | inconclusive: -60.7%
44 | O=C(COC(=O)c1cccs1)NC1CCCCC1 | inconclusive: -46.8%
45 | CCc1cc2c(C)cc(=O)oc2cc1OC(=O)C1CCCN1C(=O)OC(C)(C)C (stereo unspecified) | inconclusive: -46.9%
46 | Cc1cccc(NC(=O)Cc2cccs2)n1 | inconclusive: -77.8%

Row | Compound | activity change (PNC), negative = inhibition
47 | Cn1cnnc1SCc1ccc(F)c2ccccc12 | inconclusive: -48.6%
48 | Cc1nc(N2CCN(S(=O)(=O)c3cccc4nonc34)CC2)c2c3c(sc2n1)CCCC3 | inactive: -18.3%
49 | CCCn1nc([N+](=O)[O-])c(C(C#N)c2nc3ccccc3o2)c(Cl)c1=O (stereo unspecified) | inconclusive: -44.3%
50 | c1ccc2sc(Cc3nnc4n3CCCCC4)nc2c1 | active: -82.5%
51 | CCCCN(CC)CCCNC(=O)c1cc2c(=O)n(C)c3ccccc3c2n1C | inconclusive: -51.5%
52 | COc1ccc(OC)c(-n2c(-c3ccc(S(C)(=O)=O)cc3)cc(C=O)c2C)c1 | inconclusive: -38%
53 | c1ccc(CCCNc2ncnc3nc[nH]c23)cc1 | inconclusive: -46.4%
54 | O=C(CSc1ncc(-c2ccc(F)cc2)n1Cc1ccco1)Nc1ccc2c(c1)OCO2 | inconclusive: -34.5%
55 | N#Cc1c(NC(=O)CSc2ncn[nH]2)sc2c1CCCCC2 | active: -117%
56 | CN(CC(=O)Nc1ccc(S(=O)(=O)N2CCCC2)cc1)Cc1ccc(Cl)c(Cl)c1 | inactive: 14.3%
57 | COC(=O)c1cc(Cl)c(N)cc1OC | inconclusive: -52.9%
58 | CCn1c(SCC(=O)Nc2nccs2)nnc1-c1ccc(S(=O)(=O)N2CCCCC2)cc1 | inactive: 34.2%
59 | COC(=O)c1sccc1-n1cccc1C(=O)C(=O)N1CCCCC1 | inconclusive: -39.3%
60 | O=C(CSc1nc2c(cnn2-c2ccc(F)cc2)c(=O)[nH]1)N1CCCc2ccccc21 | inactive: -19.6%
61 | CCCCC(=O)/C=C/n1c(=S)oc2ccccc21 | active: -116%
62 | NNc1nnc(-c2ccccc2)c(-c2ccccc2)n1 | inconclusive: -48.2%
63 | CC(C)(C)c1ccc(C(=O)N/N=C2\C3CN4CCN(C3)CC2(c2ccccc2)C4)cc1 | inactive: 43.6%
64 | CCOC(=O)CCc1c(C)nc(SCC(=O)O)c(C#N)c1C | inactive: -14.3%
65 | CC(Cc1cccs1)NC(=O)NC1CCCCC1 (stereo unspecified) | inconclusive: -32.6%
66 | O=C1c2cnccc2CN1Cc1ccccc1 | inconclusive: -30.7%
67 | COC(=O)c1ccc2ncccc2c1 | inactive: 33.4%
68 | C=CCN(CC=C)S(=O)(=O)c1ccc(NC(=O)COc2ccccc2OC)cc1 | active: -87.6%
69 | Cc1c(C(=O)N2c3ccccc3Sc3ccccc32)cccc1[N+](=O)[O-] | inconclusive: -31%

Row | Compound | activity change (PNC), negative = inhibition
70 | CCOC(=O)c1c(NC(C)=O)sc2c1CCC(C=O)=C2Sc1ccccc1 | inactive: 33.1%
71 | O=C1c2ccccc2C(O)N1c1ccc(Cl)cc1 (stereo unspecified) | inactive: 17.5%
72 | Cc1ccc(NC(=S)Nc2ccc3cn[nH]c3c2)cc1 | inconclusive: -30.5%
73 | COc1ccc(N2CCN(Cc3ccc(Br)s3)CC2)cc1 | inconclusive: -34%
74 | COc1ccc(-c2cc(-c3ccc(OC)cc3)c(C#N)c(SC)n2)cc1 | active: -100%
75 | CN(C(=O)CSc1nnc(-c2ccccc2)c(-c2ccccc2)n1)C1CCS(=O)(=O)C1 (stereo unspecified) | inconclusive: -47.9%
76 | C=C(C)COc1ccc(-c2n[nH]c(C)c2-c2ccc(Br)cc2)c(O)c1 | inconclusive: -43.2%
77 | CCN1CCN(C(=O)N[C@@H](C(=O)N[C@@H]2C(=O)N3[C@@H]2SC(C)(C)[C@@H]3C(=O)O)c2ccccc2)C(=O)C1=O | inactive: -3.58%
78 | CCOc1ccc(-n2c(SCC(N)=O)nc3c([nH]c4ccccc43)c2=O)cc1 | inconclusive: -35.9%
79 | COc1ccc(Nc2nnc(SCC(=O)N3CCCC3)s2)cc1 | inconclusive: -33.2%
80 | C[N+](C)(CC#Cc1ccccc1)CC(=O)c1ccccc1 | inconclusive: -50.9%
81 | CC(=O)Nc1nc(-c2ccccc2)c(-c2ccccc2)o1 | inactive: -9.2%
82 | COc1ccc(CN(C)C2c3ccccc3-c3ccccc32)cc1 | active: -91.3%
83 | Cc1c(Cl)c([N+](=O)[O-])nn1CCCC(=O)Nc1sc2c(c1C#N)CCC2 | inconclusive: -52.1%
84 | CN(C)c1ccc(C(CNC(=O)c2ccc(F)cc2)c2c[nH]c3ccccc23)cc1 (stereo unspecified) | inconclusive: -50.2%
85 | O=C(COc1ccc2c(-c3ccccc3)cc(=O)oc2c1)NCc1cccs1 | inconclusive: -39.9%
86 | CCCN(CC(=O)Nc1c(C)cccc1CC)C(=O)SCC | inconclusive: -34.4%
87 | Cc1nn(CC(=O)NCc2cc3ccccc3[nH]2)c(C)c1[N+](=O)[O-] | inconclusive: -40.5%
88 | O=C1c2ccccc2C(=O)N1CCc1nc(-c2ccccn2)no1 | inactive: 8.17%
89 | Cc1ccc(C2C(C(=O)c3cc4ccccc4o3)=C(O)C(=O)N2CCN2CCOCC2)o1 (stereo unspecified) | inactive: -5.35%
90 | Cc1ccc(C)c(SCC(=O)Nc2cc(C)nn2-c2ccc(F)cc2)c1 | inactive: 15.4%
91 | O=[N+]([O-])c1cc(Cl)ccc1NCCNc1ncc(C(F)(F)F)cc1Cl | inconclusive: -55.6%
